# Measured values published in patent publication US8440708B2, “Triazole-substituted arylamides as P2X3 and P2X2/3 antagonists” (Roche Palo Alto LLC, priority 2007, dated 2013).
# By UniProt entry, the sequences of proteins in these tests, tags left out.
# UniProt P49654, whole entry: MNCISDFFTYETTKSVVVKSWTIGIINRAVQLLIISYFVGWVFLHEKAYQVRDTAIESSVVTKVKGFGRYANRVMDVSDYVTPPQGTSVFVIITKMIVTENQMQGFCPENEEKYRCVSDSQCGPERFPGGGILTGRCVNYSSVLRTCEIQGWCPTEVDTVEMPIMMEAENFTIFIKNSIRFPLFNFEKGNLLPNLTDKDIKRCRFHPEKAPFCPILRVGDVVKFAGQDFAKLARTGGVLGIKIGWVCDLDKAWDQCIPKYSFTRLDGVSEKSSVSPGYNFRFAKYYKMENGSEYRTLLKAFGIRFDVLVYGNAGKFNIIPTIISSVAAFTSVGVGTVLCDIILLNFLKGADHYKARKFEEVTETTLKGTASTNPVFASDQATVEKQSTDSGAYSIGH
# UniProt P56373, whole entry: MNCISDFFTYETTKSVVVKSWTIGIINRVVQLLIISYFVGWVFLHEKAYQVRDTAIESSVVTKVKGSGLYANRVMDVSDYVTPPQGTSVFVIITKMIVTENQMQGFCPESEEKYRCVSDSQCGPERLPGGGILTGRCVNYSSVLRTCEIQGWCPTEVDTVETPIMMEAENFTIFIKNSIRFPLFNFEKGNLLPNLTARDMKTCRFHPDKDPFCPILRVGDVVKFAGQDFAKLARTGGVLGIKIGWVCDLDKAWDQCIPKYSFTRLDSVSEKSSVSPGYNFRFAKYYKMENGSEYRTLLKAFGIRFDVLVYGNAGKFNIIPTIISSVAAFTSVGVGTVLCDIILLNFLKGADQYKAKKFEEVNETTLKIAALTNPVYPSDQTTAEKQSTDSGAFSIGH
# UniProt Q9UBL9, whole entry: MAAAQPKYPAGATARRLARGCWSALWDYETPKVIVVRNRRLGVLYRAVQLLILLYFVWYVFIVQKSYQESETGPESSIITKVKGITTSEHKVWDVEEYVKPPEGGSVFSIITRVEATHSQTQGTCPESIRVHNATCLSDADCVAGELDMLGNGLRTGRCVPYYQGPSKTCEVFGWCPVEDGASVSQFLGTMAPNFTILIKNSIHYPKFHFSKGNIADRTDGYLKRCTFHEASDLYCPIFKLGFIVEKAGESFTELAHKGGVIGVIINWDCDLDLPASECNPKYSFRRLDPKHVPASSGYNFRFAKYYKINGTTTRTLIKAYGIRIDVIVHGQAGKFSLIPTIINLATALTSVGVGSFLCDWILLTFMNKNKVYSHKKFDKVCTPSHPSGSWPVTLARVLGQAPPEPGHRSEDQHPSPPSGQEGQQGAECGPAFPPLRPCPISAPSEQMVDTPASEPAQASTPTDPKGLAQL
# Key:
# rat P2X3 receptor = rat P2X3 receptor (Rattus norvegicus, UniProt P49654); experiment: P2X3/P2X2/3 FLIPR (Fluorometric Imaging Plate Reader) Assay, P2X3; settings: CHO-K1 cells transfected with rat P2X3; agonist α,β-meATP 1 μM; Table 1
# Protocol: P2X3/P2X2/3 FLIPR (Fluorometric Imaging Plate Reader) Assay
# CHO-K1 cells were transfected with cloned rat P2X3 or human P2X2/3 receptor subunits and passaged in flasks. 18-24 hours before the FLIPR experiment, cells were released from their flasks, centrifuged, and resuspended in nutrient medium at 2.5×10^5 cells/ml. The cells were aliquoted into black-walled 96-well plates at a density of 50,000 cells/well and incubated overnight in 5% CO2 at 37° C. On the day of the experiment, cells were washed in FLIPR buffer (calcium- and magnesium-free Hank's balanced salt solution, 10 mM HEPES, 2 mM CaCl2, 2.5 mM probenecid; FB). […]
# Test compounds (dissolved in DMSO at 10 mM and serially diluted with FB) or vehicle were added to each well (25 μl of a 4× solution) and allowed to equilibrate for 20 minutes at room temperature. The plates were then placed in the FLIPR and a baseline fluorescence measurement (excitation at 488 nm and emission at 510-570 nm) was obtained for 10 seconds before a 100 μl/well agonist or vehicle addition. […] Fluorescence was measured for an additional 2 minutes at 1 second intervals after agonist addition. A final addition of ionomycin (5 μM, final concentration) was made to each well of the FLIPR test plate to establish cell viability and maximum fluorescence of dye-bound cytosolic calcium. […]
# human P2X2/3 receptor = human P2X2/3 receptor (Homo sapiens, UniProt P56373+Q9UBL9); experiment: P2X3/P2X2/3 FLIPR (Fluorometric Imaging Plate Reader) Assay, P2X2/3; settings: CHO-K1 cells transfected with human P2X2/3; agonist α,β-meATP 5 μM; Table 1
smiles,measurement,setting,value
Cc1ccc(-c2cc(C(=O)N[C@@H](C)CO)cc(-n3ncnc3C3CCC3)c2)nc1,P2X3 pKi,rat P2X3 receptor,8.25
same,P2X2/3 pKi,human P2X2/3 receptor,6.25

# Structures were worked out from names or drawings and are uncertain.
